These are yes or no findings as the source states them, for the method shown. For some of these results: Binding calls can cover weak binding; strength is not graded here. For some of these results: Sequences can lack the tags named with a protein. For some of these results: In cells and extracts the contact can be indirect.

For assay [1], the target named is T1, N-terminal FLAG-GFP-tagged full-length Kir4.1 (UniProt P78508).
T1 sequence: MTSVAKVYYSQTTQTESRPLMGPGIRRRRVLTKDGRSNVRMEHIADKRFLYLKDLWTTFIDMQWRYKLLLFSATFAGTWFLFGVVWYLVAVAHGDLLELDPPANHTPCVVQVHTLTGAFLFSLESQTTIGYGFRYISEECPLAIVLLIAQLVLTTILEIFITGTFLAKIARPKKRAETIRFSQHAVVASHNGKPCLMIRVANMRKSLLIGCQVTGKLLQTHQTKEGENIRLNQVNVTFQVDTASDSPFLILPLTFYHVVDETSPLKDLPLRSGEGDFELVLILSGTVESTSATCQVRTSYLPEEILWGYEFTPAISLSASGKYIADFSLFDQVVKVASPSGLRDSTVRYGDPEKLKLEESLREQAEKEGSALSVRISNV
Nature of the assay: co-IP; Kir4.1 WT or ΔTQT purified from HEK293 cells; copurified endogenous LC8 seen on 1D gels by Coomassie staining and by immunoblot with anti-LC8 antibodies. A general note: Immunoblotting shows a protein as a band on a membrane.

Assay [2] addresses T2, full-length Kir4.1 protein with the ΔTQT deletion (UniProt P78508).
T2 sequence: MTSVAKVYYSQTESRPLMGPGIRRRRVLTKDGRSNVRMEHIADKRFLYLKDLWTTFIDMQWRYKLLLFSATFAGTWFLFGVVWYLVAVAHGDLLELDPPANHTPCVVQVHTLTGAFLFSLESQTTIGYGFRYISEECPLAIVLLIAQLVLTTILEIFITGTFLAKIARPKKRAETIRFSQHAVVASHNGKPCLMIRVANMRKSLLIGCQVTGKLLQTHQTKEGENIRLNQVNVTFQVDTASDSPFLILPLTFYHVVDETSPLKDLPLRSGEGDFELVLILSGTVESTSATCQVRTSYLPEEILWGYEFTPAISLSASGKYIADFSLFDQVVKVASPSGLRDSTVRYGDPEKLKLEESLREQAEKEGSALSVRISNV
The assay is described as above.

Assay [3] concerns the target T1, N-terminal FLAG-GFP-tagged full-length Kir4.1. Nature of the assay: pull-down; GST-LC8, free GST, or GST-LC8 plus free LC8 with purified F-GFP-Kir4.1; PBS; read by GFP signals; both purified.
Assay [4] has the same target. Put plainly: pull-down; competition: GST-LC8 plus added free LC8; F-GFP-Kir4.1 in detergent-solubilized membrane fraction; PBS; read by GFP signals; only the binder purified.
The target of assay [5] is T3, GST-tagged WT Kir4.1 N-term peptide (residues 1-38) (UniProt P78508).
T3 sequence: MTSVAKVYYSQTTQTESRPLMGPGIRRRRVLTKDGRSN
Nature of the assay: SEC; fluorescence SEC (Shimadzu) on a Superdex 200 column in PBS; shift of the GFP-tagged protein after incubation with the GST-tagged partner; both purified. A general note: In gel filtration, larger molecules generally elute earlier.

Assay [6] concerns the target T4, GST-tagged ΔTQT Kir4.1 N-term peptide (UniProt P78508).
T4 sequence: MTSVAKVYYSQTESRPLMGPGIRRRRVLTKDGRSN
The assay is described as above.

Assay [7] addresses GST-tagged LC8 of the peptide binding assay. Described as above.

On to “dynein light chain 1 (human (endogenous in HEK293))”, for which the results for the binding entry in assay [1] and in assay [2] were “binds” and “no binding”, respectively. Consider free LC8, for which the binding result in assay [3] and in assay [4] was “binds” throughout. GFP-tagged LC8: the binding result is “binds” in assay [5] and “no binding” in assay [6]. In the case of MTSVAKVYYSQTESRPLMGPGIRRRRVLTKDGRSN (peptide, UniProt P78508 1-38) [GFP-tagged ΔTQT Kir4.1 N-term peptide], the binding result in assay [7] was “no binding”.

The record behind these values is PMC11999606, “Dynein light chains 1 and 2 are auxiliary proteins of pH-sensitive Kir4.1 channels” (The Journal of Biological Chemistry, 2025).
